# Measurements taken from US12559495B2 (Agency for Science, Technology and Research, priority 2013, dated 2026).
# At least one compound was matched to its structure with a doubt left.
# How the values were obtained:
# [1] = tested on: p-LRP6 (Ser1490); experiment: Phospho-LRP6 assay, time course, PA-1 teratocarcinoma cells; format: cell-based; details: 2 μM, in vitro (FIG. 3)
# Method: FIGS. 3A-3B show the time-course of p-LRP6 (Ser 1490) inhibition (in vitro) induced by porcupine inhibitors. FIG. 3A is a Western blot analysis of PA-1 teratocarcinoma cells treated with 2 μM of Compound 5, for the time points indicated with antibodies as indicated on the left. As a control, cells treated with either growth medium alone or the vehicle (DMSO) for 48 h were included. FIG. 3B is a densitometric analysis of pLRP6 relative to total LRP6.
# The present target efficacy biomarker assay measures a decrease in levels of p-LRP6 (i.e. phosphorylated LRP-6) (Ser1490) upon treatment with a porcupine inhibitor (Compound 5). […] The inhibitory effect remains up to 72 h (data not shown) in the presence of the compound and up to 12 h after the compound has been removed (data not shown).
# [2] = tested on: β-catenin; experiment: Cytoplasmic and nuclear β-catenin experiment (staining of tumor sections); format: in vivo, mice; details: tumor sections stained for β-catenin
smiles,measurement,setting,value
"Cn1c(=O)c2c(ncn2CC(=O)Nc2ccc(-c3ccccc3)nn2)n(C)c1=O [Compound 5, 2-(1,3-dimethyl-2,6-dioxo-1,2,3,6-tetrahydro-7H-purin-7-yl)-N-(6-phenylpyridazin-3-yl)acetamide]",total LRP levels,[1],no decrease observed
same,cytoplasmic and nuclear β-catenin in tumors,[2],decreased cytoplasmic and nuclear β-catenin in tumors
